These are yes or no findings as the source states them, for the method shown. In cells and extracts the contact can be indirect. Some binding calls cover weakened binding; strength is not graded here.
Molecular target: T1, GvpA-based gas vesicles, shell of the major shell protein GvpA from Anabaena flos-aquae (Anabaena flos-aquae) (UniProt P10397)
T1 sequence: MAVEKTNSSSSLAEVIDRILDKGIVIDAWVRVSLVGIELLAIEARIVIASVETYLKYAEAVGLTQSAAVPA
Assay: co-sedimentation

B1: GvpC, minor shell protein from A. flos-aquae (protein, UniProt P09413 1-193)
chain: MISLMAKIRQEHQSIAEKVAELSLETREFLSVTTAKRQEQAEKQAQELQAFYKDLQETSQQFLSETAQARIAQAEKQAQELLAFHKELQETSQQFLSATAQARIAQAEKQAQELLAFYQEVRETSQQFLSATAQARIAQAEKQAQELLAFHKELQETSQQFLSATADARTAQAKEQKESLLKFRQDLFVSIFG
  binding: binds

Source: publication doi:10.1101/2023.06.01.543273
